Paper PMC10006230
These are yes or no findings as the source states them, for the method shown. Binding seen in cells or lysates may run through a third protein. Some entries that bind do so weakly or less than the wild type.

Sequences of proteins named here, by UniProt entry; tags and fusion partners are left off.
UniProt P01106: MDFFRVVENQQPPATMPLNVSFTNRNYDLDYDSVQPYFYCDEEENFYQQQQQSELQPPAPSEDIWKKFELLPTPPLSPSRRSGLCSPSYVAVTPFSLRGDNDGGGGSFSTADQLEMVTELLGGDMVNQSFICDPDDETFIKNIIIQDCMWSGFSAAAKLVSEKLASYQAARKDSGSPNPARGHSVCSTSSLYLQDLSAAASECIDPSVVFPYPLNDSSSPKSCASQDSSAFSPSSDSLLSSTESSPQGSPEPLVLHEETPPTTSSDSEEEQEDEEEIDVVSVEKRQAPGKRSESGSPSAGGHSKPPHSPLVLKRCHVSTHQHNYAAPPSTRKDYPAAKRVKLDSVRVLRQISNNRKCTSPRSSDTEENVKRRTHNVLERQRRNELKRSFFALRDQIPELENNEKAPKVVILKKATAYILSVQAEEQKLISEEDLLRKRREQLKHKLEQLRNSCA
UniProt P26599: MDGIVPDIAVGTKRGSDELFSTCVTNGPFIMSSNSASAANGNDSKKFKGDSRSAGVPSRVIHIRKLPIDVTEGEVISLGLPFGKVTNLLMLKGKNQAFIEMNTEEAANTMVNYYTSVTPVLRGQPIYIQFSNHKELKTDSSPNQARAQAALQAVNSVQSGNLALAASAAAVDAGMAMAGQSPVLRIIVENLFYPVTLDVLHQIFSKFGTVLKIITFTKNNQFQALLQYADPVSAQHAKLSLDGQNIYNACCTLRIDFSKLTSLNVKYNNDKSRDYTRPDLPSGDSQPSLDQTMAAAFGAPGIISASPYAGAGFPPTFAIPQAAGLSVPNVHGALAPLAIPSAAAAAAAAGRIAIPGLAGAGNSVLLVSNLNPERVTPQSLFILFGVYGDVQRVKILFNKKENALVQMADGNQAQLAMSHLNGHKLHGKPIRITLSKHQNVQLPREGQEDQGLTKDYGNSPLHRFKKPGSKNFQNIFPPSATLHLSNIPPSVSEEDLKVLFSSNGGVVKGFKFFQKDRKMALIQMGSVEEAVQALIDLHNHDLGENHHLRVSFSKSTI

Molecular target: c-Myc (human (endogenous in AGS and HGC-27)) (UniProt P01106)
Experiment: co-IP; lysates of AGS and HGC-27 cells immunoprecipitated with anti c-Myc antibodies or control IgG; PTBP1 detected by western blotting; endogenous proteins

## Polypyrimidine tract binding protein 1 (from UniProt P26599 1-557)
  binding: binds
